From article PMC7969623 come the findings set out here.

No constants are given. Whether binding was seen depends on the method and setting. In cells and extracts the contact can be indirect. Here binding means that the protein was enriched with, or labelled near, the bait; the list need not be complete. Where a sequence is shown, tags or fusion partners need not be part of it.

The target in this assay is T1, PRRT2-HA (full length PRoline Rich Transmembrane protein 2 with HA tag fused at C terminus) (UniProt E9PUL5).
T1 sequence: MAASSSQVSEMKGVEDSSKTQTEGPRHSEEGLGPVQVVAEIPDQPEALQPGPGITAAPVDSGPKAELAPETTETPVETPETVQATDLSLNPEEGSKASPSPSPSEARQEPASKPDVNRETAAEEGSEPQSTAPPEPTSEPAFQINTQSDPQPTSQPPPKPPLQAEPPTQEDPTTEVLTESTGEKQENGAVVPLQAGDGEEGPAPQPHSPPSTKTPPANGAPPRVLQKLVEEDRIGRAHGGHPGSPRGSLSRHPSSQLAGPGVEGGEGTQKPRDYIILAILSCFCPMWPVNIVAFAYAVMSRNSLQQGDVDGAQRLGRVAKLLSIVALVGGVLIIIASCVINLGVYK
Kind of assay: affinity purification with mass spectrometry; PRRT2-HA or BAP-HA from COS-7 held on anti-HA agarose, washed, incubated overnight at 4 °C with total mouse brain extract in lysis buffer (1% Triton X-100, 150 mM NaCl, 50 mM Tris-HCl pH 7.4, 1 mM EDTA); eluted with HA peptide; bands between 95 and 130 kDa cut from the Coomassie gel, LC-MS/MS; only the target purified.

B1: Puromycin-sensitive aminopeptidase (protein, UniProt Q11011 1-920)
chain: MWLAAAVPSLARRLLLLGPPPPPLLLLLSRSSRRRRRLHSLGLAAMPEKRPFERLPAEVSPINYSLCLKPDLLDFTFEGKLEAAAQVRQATNQIVMNCADIDIITASYAPEGDEEIHATGFNYQNEDEKVTLSFPSTLQTGTGTLKIDFVGELNDKMKGFYRSRYTTPAGEVRYAAVTQFEATDARRAFPCWDEPAIKATFDISLVVPKDRVALSNMNVIDRKPYPDDENLVEVKFARTPVMSTYLVAFVVGEYDFVETRSKDGVCVRVYTPVGKAEQGKFALEVAAKTLPFYKDYFNVPYPLPKIDLIAIADFAAGAMENWGLVTYRETALLIDPKNSCSSSRQWVALVVGHELAHQWFGNLVTMEWWTHLWLNEGFASWIEYLCVDHCFPEYDIWTQFVSADYTRAQELDALDNSHPIEVSVGHPSEVDEIFDAISYSKGASVIRMLHDYIGDKDFKKGMNMYLTKFQQKNAATEDLWESLESASGKPIAAVMNTWTKQMGFPLIYVEAEQVEDDRVLKLSQKKFCASGPYGGEDCPQWMVPITISTSEDPNQAKLKILMDKPEMSVVLKNVKPDQWVKLNLGTVGFYRTQYSSAMLESLLPGIRDLSLPPVDRLGLQNDLFSLARAGIISTVEVLKVMEAFVNEPNYTVWSDLSCNLGILSTLLSHTDFYEEIQEFVKDVFSPIGERLGWDPKPGEGHLDALLRGLVLGKLGKAGHKATLEEARRRFKEHVEGKQILSADLRSPVYLTVLKHGDGATLDIMLKLHKQADMQEEKNRIERVLGATLSPELIQKVLTFALSEEVRPQDTVSVIGGVAGGSKHGRKAAWKFIKDNWEELHNRYQGGFLISRLIKLSVEGFAVDKMAGEVKAFFESHPAPSAERTIQQCCENILLNAAWLKRDADSIHQYLLQRKTSPPSV
Consider B1, for which the binding result is listed as “binds”.

B2: Exportin-2 (protein, UniProt Q9ERK4 1-971)
chain: MELSDANLQTLTEYLKKTLDPDPAIRRPAEKFLESVEGNQNYPLLLLTLLEKSQDNVIKVCASVTFKNYIKRNWRIVEDEPNKICEADRVAIKANIVHLMLSSPEQIQKQLSDAISIIGREDFPQKWPDLLTEMVNRFQSGDFHVINGVLRTAHSLFKRYRHEFKSNELWTEIKLVLDAFALPLTNLFKATIELCSTHANDASALRILFSSLILISKLFYSLNFQDLPEFFEDNMETWMNNFHTLLTLDNKLLQTDDEEEAGLLELLKSQICDNAALYAQKYDEEFQRYLPRFVTAIWNLLVTTGREVKYDLLVSNAIQFLASVCERPHYKNLFEDQNTLTSICEKVIVPNMEFRAADEEAFEDNSEEYIRRDLEGSDIDTRRRAACDLVRGLCKFFEGPVTGIFSGYVNSMLQEYAKNPSVNWKHKDAAIYLVTSLASKAQTQKHGITQANELVNLTEFFVNHILPDLKSNNVNEFPVLKADGIKYIMIFRNQVPKEHLLVSIPLLISHLEAESIVVHTYAAHALERLFTMRGSNNTTLFTAAEIAPFVEILLTNLFKALTLPGSSENEYIMKAIMRSFSLLQEAIIPYIPTLITQLTQKLLAVSKNPSKPHFNHYMFEAICLSIRITCKANPAAVVNFEEALFLVFTEILQNDVQEFIPYVFQVMSLLLETHKNDIPSSYMALFPHLLQPVLWERTGNIPALVRLLQAFLERGSSTIATAAADKIPGLLGVFQKLIASKANDHQGFYLLNSIIEHMPPESVDQYRKQIFILLFQRLQNSKTTKFIKSFLVFINLYCIKYGALALQEIFDGIQPKMFGMVLEKIIIPEIQKVSGNVEKKICAVGITKLLTECPPMMDTEYTKLWTPLLQSLIGLFELPEDDSIPDEEHFIDIEDTPGYQTAFSQLAFAGKKEHDPVGQMVNNPKIHLAQSLHKLSTACPGRVPSMVSTSLNAEALQYLQGYLQAASVTLL
Regarding B2, the binding result was “binds”.
